This is an account of results in PMC11988928.

Chains of the proteins cited; added tags and fusions are not shown. Chains listed by the source or under a name are the forms on record and can include a tag or linker.
KatB (catalase), one chain, as listed by the source: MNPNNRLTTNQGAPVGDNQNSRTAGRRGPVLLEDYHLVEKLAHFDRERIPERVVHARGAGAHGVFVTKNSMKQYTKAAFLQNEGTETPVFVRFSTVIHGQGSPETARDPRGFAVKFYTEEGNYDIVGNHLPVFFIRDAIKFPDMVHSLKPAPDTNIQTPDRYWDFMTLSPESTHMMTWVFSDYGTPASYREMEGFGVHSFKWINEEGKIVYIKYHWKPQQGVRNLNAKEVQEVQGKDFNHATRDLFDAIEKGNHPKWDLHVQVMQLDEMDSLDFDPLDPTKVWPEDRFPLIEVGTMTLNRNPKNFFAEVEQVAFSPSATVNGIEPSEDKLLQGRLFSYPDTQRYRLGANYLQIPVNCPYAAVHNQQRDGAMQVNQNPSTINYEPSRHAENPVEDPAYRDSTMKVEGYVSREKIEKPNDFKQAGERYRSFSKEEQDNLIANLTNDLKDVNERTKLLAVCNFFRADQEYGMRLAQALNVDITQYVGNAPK

Construct, isoform or probe ends are uncertain for at least one entry. For part of these data: A negative result means that nothing was seen under these conditions.

Data set [1] has as its system Fur (ferric uptake regulator) (Bacillus thuringiensis 97-27). As to the kind of experiment: DNase I footprinting. To be noted: recombinant protein; residues 1-151; label: 5'-FAM on forward strand; probe letters rebuilt from the primers and the genome.
Data set [2] concerns KatB (catalase). In words: EMSA. To be noted: increasing KatB; EMSA: 50 mM Tris-HCl pH 7.5, 10 mM MgCl2, 1 mM DTT, 100 mM NaCl, 25 C, 30 min; 8% native PAGE in 0.5x TBE; metal series with 0.05 mM Fur and 0.001 mM DNA; recombinant protein; label: none (ethidium bromide stain); probe letters rebuilt from the primers and the ….
Data set [3] has as its system Fur (ferric uptake regulator) (Bacillus thuringiensis 97-27). In words: EMSA. As to conditions: EMSA: 50 mM Tris-HCl pH 7.5, 10 mM MgCl2, 1 mM DTT, 100 mM NaCl, 25 C, 30 min, 8% native PAGE in 0.5x TBE, metal series with 0.05 mM Fur and 0.001 mM DNA, recombinant protein, residues 1-151, label: none (ethidium bromide stain), probe letters rebuilt from the primers and the genome.

For “AGAATAGGAGAAAAGCGACTTACTTTATAAGTAAGTCGCTTTTTATTAAATAAATTGTCATATAAAATTCAGAATCATATTAGAAAAAATCCTTATTTAGAATAATTATCTTTACGTATTTATTATTAGTTGTTATAATTGGAAACAAATGTTCTTGAAAAAGATTCTCATTTATAAAATTGAGGTGTTATATAGATGAAAAAGAAAAAAATAGGTTTACTCGTAATGGCGTATGGAACG (double strand) [PhemH2 promoter fragment, FAM]”, the binding result in data set [1] is reported as “binds”.
“AGAATAGGAGAAAAGCGACTTACTTTATAAGTAAGTCGCTTTTTATTAAATAAATTGTCATATAAAATTCAGAATCATATTAGAAAAAATCCTTATTTAGAATAATTATCTTTACGTATTTATTATTAGTTGTTATAATTGGAAACAAATGTTCTTGAAAAAGATTCTCATTTATAAAATTGAGGTGTTATATAGATGAAAAAGAAAAAAATAGGTTTACTCGTAATGGCGTATGGAACG (double strand) [PhemH2 promoter fragment]”: the binding result in data set [2] is listed as “no binding”; in data set [3] (Fe2+ up to 0.025 mM (list printed 0, 0.0125, 0.025, 0.01), binding enhanced), “binds”; in data set [3] (Fe3+ up to 0.025 mM (list printed 0, 0.0125, 0.025, 0.01), binding enhanced), “binds”; in data set [3] (Mn2+ 0.125-0.5 mM, no effect on binding), “binds”; in data set [3] (no added Fe/Mn, Fur 0-0.05 mM) it was “binds”.
